Assay results taken from the supplement of paper PMC4604168 (melanoma cell lines).
The other results are listed elsewhere or left out. Many values rest on one well or one pass, so single values are uncertain.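 The apoptosis fraction was the count of cleaved-PARP antibody-stained nuclei relative to all DNA-stained nuclei, imaged in 1,536-well plates. Screening doses were set so most cells survived, and baseline and induced cleaved-PARP levels vary greatly across cell lines.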

What was measured:
Experiment in all cases: cleaved PARP positive nuclei fraction relative to DMSO control; melanoma cells; higher = more apoptosis
Settings in all cases: library dose: low library concentration; 72 h
MZ2-MEL = system: MZ2-MEL
MeWo = system: MeWo
RPMI7951 = system: RPMI7951
RVH-421 = system: RVH-421
SkMel28 = system: SkMel28
SkMel30 = system: SkMel30
SkMel5 = system: SkMel5
UACC257 = system: UACC257
UACC62 = system: UACC62
WM115 = system: WM115
WM1716 = system: WM1716
WM1745 = system: WM1745
WM3526 = system: WM3526
WM3619 = system: WM3619
WM451Lu = system: WM451Lu

Structure (SMILES)	cleaved PARP positive nuclei fraction (MZ2-MEL)	cleaved PARP positive nuclei fraction (MeWo)	cleaved PARP positive nuclei fraction (RPMI7951)	cleaved PARP positive nuclei fraction (RVH-421)	cleaved PARP positive nuclei fraction (SkMel28)	cleaved PARP positive nuclei fraction (SkMel30)	cleaved PARP positive nuclei fraction (SkMel5)	cleaved PARP positive nuclei fraction (UACC257)	cleaved PARP positive nuclei fraction (UACC62)	cleaved PARP positive nuclei fraction (WM115)	cleaved PARP positive nuclei fraction (WM1716)	cleaved PARP positive nuclei fraction (WM1745)	cleaved PARP positive nuclei fraction (WM3526)	cleaved PARP positive nuclei fraction (WM3619)	cleaved PARP positive nuclei fraction (WM451Lu)
Nc1cccc2c1CN(C1CCC(=O)NC1=O)C2=O (stereo not given) [lenalidomide] + CCCCCCCCCCCC1=C(O)C(=O)C=C(O)C1=O [Embelin] (first compound 1 µM, partner dose 1.2 µM)	110%	45.6%	139%	87.9%	48.2%	82%	78.8%	63.9%	93.2%	46.1%	74.7%	101%	67.3%	74.6%	113%
C[C@@H]1CCN(C(=O)CC#N)C[C@@H]1N(C)c1ncnc2[nH]ccc12 + N#Cc1c(O)c2c(-c3ccc(-c4ccccc4O)cc3)csc2[nH]c1=O [A769662] (first compound 1 µM, partner dose 2 µM)	143%	73%	31.9%	46.9%	148%	12.9%	25.6%	72.9%	50.4%	45.3%	106%	320%	63.8%	78.8%	62.5%
CC(C)(C)c1cnc(CSc2cnc(NC(=O)C3CCNCC3)s2)o1 + O=C1NC(=O)/C(=C/c2ccc(-c3ccc(F)cc3O)o2)S1 [AS252424] (first compound 0.01 µM, partner dose 1 µM)	85.8%	71.9%	80.1%	45.8%	83.7%	24%	53%	109%	73.9%	219%	143%	123%	60.1%	107%	212%
C#Cc1cccc(Nc2ncnc3cc(OCCOC)c(OCCOC)cc23)c1 [erlotinib] + Cn1cc(/C=C2\C(=O)Nc3cccnc32)c2ccccc21 [GW441756] (first compound 0.8 µM, partner dose 0.4 µM)	52.3%	76.6%	89.7%	111%	175%	54.6%	403%	128%	236%	138%	166%	134%	68.8%	87.1%	55.7%
Cc1cc(N2CCOCC2)cc2[nH]c(-c3c(NC[C@@H](O)c4cccc(Cl)c4)cc[nH]c3=O)nc12 + COc1cc2ncnc(Nc3ccc(Oc4ccccc4)cc3)c2cc1OC [SrcI1] (first compound 0.2 µM, partner dose 2 µM)	232%	66.2%	107%	32.2%	135%	31.3%	127%	157%	105%	61.7%	118%	127%	80%	88.5%	34%
COCC[n+]1c2c(n(Cc3cnccn3)c1C)C(=O)c1ccccc1C2=O + O=C(O)C(=O)Nc1sc2c(c1C(=O)O)CCNC2 [TCS401] (first compound 0.0004 µM, partner dose 1.66667 µM)	163%	131%	102%	74.6%	37.3%	20.7%	49%	63.6%	156%	212%	88.9%	110%	203%	77.5%	73.7%
Cc1nc(Nc2ncc(C(=O)Nc3c(C)cccc3Cl)s2)cc(N2CCN(CCO)CC2)n1 [dasatanib] + COc1cc(N2CCC(N3CCN(C)CC3)CC2)ccc1Nc1ncc(Cl)c(Nc2ccccc2S(=O)(=O)C(C)C)n1 [NVP-TAE684] (first compound 0.004 µM, partner dose 0.08 µM)	304%	55.7%	131%	107%	285%	16.7%	99.5%	393%	114%	140%	420%	241%	69.2%	107%	75.2%
Cn1nnc2c(C(N)=O)ncn2c1=O [temozolomide] + O=S(=O)(c1ccccc1)N(CC(F)(F)F)c1ccc(C(O)(C(F)(F)F)C(F)(F)F)cc1 [T0901317] (first compound 2 µM, partner dose 1.4 µM)	44%	21.7%	36.5%	44.5%	77.8%	27.9%	68.3%	192%	92%	95.2%	58%	109%	70.1%	72.3%	28.3%
C#Cc1cccc(Nc2ncnc3cc(OCCOC)c(OCCOC)cc23)c1 [erlotinib] + CCc1ccc(CCOc2ccc(CC3SC(=O)NC3=O)cc2)nc1 [pioglitazone] (first compound 0.8 µM, partner dose 2 µM)	190%	214%	86.4%	22.1%	66.6%	53.4%	82.4%	235%	245%	128%	58.3%	140%	160%	115%	109%
Cc1ccc(NC(=O)c2cccc(N(C)C)c2)cc1NC(=O)c1ccc(O)cc1 + O=S(=O)(c1ccccc1)N(CC(F)(F)F)c1ccc(C(O)(C(F)(F)F)C(F)(F)F)cc1 [T0901317] (first compound 2 µM, partner dose 1.4 µM)	191%	108%	23.4%	48.5%	125%	15.9%	62.2%	60.6%	53.9%	47.5%	89.3%	130%	75.9%	184%	68.7%
Nc1cccc2c1CN(C1CCC(=O)NC1=O)C2=O (stereo not given) [lenalidomide] + CC(C)CCN1c2nc(Nc3cc(F)c(O)c(F)c3)ncc2N(C)C(=O)C1C [BID1870] (first compound 1 µM, partner dose 0.2 µM)	55.5%	85.5%	31.9%	83.3%	22.6%	49.3%	169%	76.5%	207%	140%	110%	94%	86.3%	74.4%	60.1%
CC1(C)NC(=O)N(c2ccc([N+](=O)[O-])c(C(F)(F)F)c2)C1=O [nilutamide] + O=C1NC(=O)/C(=C/c2ccc(-c3ccc(F)cc3O)o2)S1 [AS252424] (first compound 1 µM, partner dose 1 µM)	179%	21.4%	50.7%	51.1%	120%	23%	29.1%	178%	92.7%	142%	51%	109%	60.1%	83.9%	96%
OCCn1cc(-c2cnc3nnn(Cc4ccc5ncccc5c4)c3n2)cn1 + COc1ccc2c(c1)CCC1C2CCC2(C)C(NCCCCCCN3C(=O)C=CC3=O)CCC12 [U73122] (first compound 1 µM, partner dose 0.4 µM)	42.5%	63.9%	117%	138%	112%	49.1%	34%	65.1%	62.2%	80.1%	111%	102%	31.6%	152%	202%
Cn1cncc1[C@@](N)(c1ccc(Cl)cc1)c1ccc2c(c1)c(-c1cccc(Cl)c1)cc(=O)n2C [tipifarnib] + COc1ccc2c(c1)CCC1C2CCC2(C)C(NCCCCCCN3C(=O)C=CC3=O)CCC12 [U73122] (first compound 0.01 µM, partner dose 0.4 µM)	51.9%	91.5%	119%	25.2%	136%	58.7%	94.4%	129%	453%	99.3%	197%	116%	69.9%	306%	84.5%
Cn1nnc2c(C(N)=O)ncn2c1=O [temozolomide] + COc1cc2ncnc(Nc3ccc(Oc4ccccc4)cc3)c2cc1OC [SrcI1] (first compound 2 µM, partner dose 2 µM)	89.5%	99.7%	35.7%	36%	100%	30%	75.6%	53.2%	45.6%	70.6%	66.6%	127%	65.9%	81.8%	58.9%
Cc1ccc(NC(=O)c2cccc(N(C)C)c2)cc1NC(=O)c1ccc(O)cc1 + COc1ccc(-c2ccc3c(N4CCOCC4)nc(N4C[C@@H](C)O[C@@H](C)C4)nc3n2)cc1CO [KU0063794] (first compound 2 µM, partner dose 0.02 µM)	80%	29%	39.7%	40.2%	134%	78.2%	74.8%	107%	47.9%	103%	236%	110%	81.8%	87.3%	185%
O=C(Nc1cccc(Cl)c1)Nc1ncc(CCNc2ncnc3ccsc23)s1 + Oc1cc(-c2nc(-c3ccccc3)[nH]c2-c2ccncc2)ccc1Cl [L779450] (first compound 0.0008 µM, partner dose 0.2 µM)	60.6%	48.4%	43.9%	375%	110%	20.9%	27.6%	104%	84.6%	146%	54.4%	112%	52.1%	186%	74.4%
Cc1ccc(NC(=O)c2cccc(N(C)C)c2)cc1NC(=O)c1ccc(O)cc1 + CC(C)CCN1c2nc(Nc3cc(F)c(O)c(F)c3)ncc2N(C)C(=O)C1C [BID1870] (first compound 2 µM, partner dose 0.2 µM)	152%	363%	86.8%	60.7%	196%	740%	82.6%	103%	48.2%	95.5%	55.1%	94.3%	72.7%	93.5%	24.4%
O=C(Nc1cccc(Cl)c1)Nc1ncc(CCNc2ncnc3ccsc23)s1 + COc1ccc(COc2ccc(Cc3cnc(N)nc3N)cc2OC)cc1 [GW2580] (first compound 0.0008 µM, partner dose 1 µM)	54.7%	31.8%	279%	111%	70.2%	20.5%	60.2%	110%	41.6%	88.7%	138%	112%	73.5%	84.4%	61.6%
OCCn1cc(-c2cnc3nnn(Cc4ccc5ncccc5c4)c3n2)cn1 + N#Cc1c(O)c2c(-c3ccc(-c4ccccc4O)cc3)csc2[nH]c1=O [A769662] (first compound 1 µM, partner dose 2 µM)	78.1%	51.5%	166%	58.8%	106%	20%	42.7%	211%	156%	95.7%	99.1%	115%	140%	79.1%	42.6%

Part of the list above, bar-delimited:
Structure (SMILES) | cleaved PARP positive nuclei fraction (MZ2-MEL) | cleaved PARP positive nuclei fraction (MeWo) | cleaved PARP positive nuclei fraction (RPMI7951) | cleaved PARP positive nuclei fraction (RVH-421) | cleaved PARP positive nuclei fraction (SkMel28) | cleaved PARP positive nuclei fraction (SkMel30) | cleaved PARP positive nuclei fraction (SkMel5) | cleaved PARP positive nuclei fraction (UACC257) | cleaved PARP positive nuclei fraction (UACC62) | cleaved PARP positive nuclei fraction (WM115) | cleaved PARP positive nuclei fraction (WM1716) | cleaved PARP positive nuclei fraction (WM1745) | cleaved PARP positive nuclei fraction (WM3526) | cleaved PARP positive nuclei fraction (WM3619) | cleaved PARP positive nuclei fraction (WM451Lu)
O=C(Nc1cccc(Cl)c1)Nc1ncc(CCNc2ncnc3ccsc23)s1 + COc1ccc(COc2ccc(Cc3cnc(N)nc3N)cc2OC)cc1 [GW2580] (first compound 0.0008 µM, partner dose 1 µM) | 54.7% | 31.8% | 279% | 111% | 70.2% | 20.5% | 60.2% | 110% | 41.6% | 88.7% | 138% | 112% | 73.5% | 84.4% | 61.6%
OCCn1cc(-c2cnc3nnn(Cc4ccc5ncccc5c4)c3n2)cn1 + N#Cc1c(O)c2c(-c3ccc(-c4ccccc4O)cc3)csc2[nH]c1=O [A769662] (first compound 1 µM, partner dose 2 µM) | 78.1% | 51.5% | 166% | 58.8% | 106% | 20% | 42.7% | 211% | 156% | 95.7% | 99.1% | 115% | 140% | 79.1% | 42.6%
